Library screen at single concentrations

A: 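Phenotypic screen: M. tuberculosis growth, cholesterol and DPPC medium, 4 days; the read-out is not stated. Concentration: 50 µM. Direction is inferred from retests: higher values go with more growth inhibition. Of about 69,000 compounds tested this way, about 370 (0.54%) reached 50% or more in at least one test.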
B: 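Growth of Mycobacterium tuberculosis over 3 days (7H9 medium with glucose and tyloxapol); the read-out is not stated. Concentration: 50 µM. The record gives no direction; compounds that gave an IC50 in retests scored well above the rest, so higher reads as more growth inhibition. About 69,000 compounds were tested under these conditions; 1.1% (about 760) showed 50% or more at least once.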

Values are the deposited “Percent Effect”, in %.
How 0% and 100% were set is not recorded. Most values in the screen are low, and negative values occur.
Compounds were drawn at random from those tested, without regard to their results.
Two or more numbers in one place are separate tests of the same structure; such repeats can differ widely.

structure,A,B
O=C(O)C1c2nc[nH]c2CCN1Cc1ccccc1-c1ccccc1 (centres undefined),8.248,-14.3
Cc1cc2c(=O)n3c(nc2s1)CCN(Cc1[nH]cnc1C)CC3.Cl,-4.515,6.586
O=C(O)C(F)(F)F.O=S(=O)(C1CC1)N1CCCn2cnc(COc3cccnc3)c2C1,-15.67,-4.629
Nc1nccnc1C1CN(C(=O)c2ccnnc2)CCO1 (centres undefined),13.71,27.6
Cc1cccc(CN2CCc3ncnc(Oc4cccnc4)c3CC2)n1,8.045,13.17
COc1ccc(COCC(=O)N2CCC(c3nncn3C)CC2)cc1,-13.12,-8.679
O=C(O)C(F)(F)F.[H][C@@]12CN(C(=O)c3ccc(C)nc3)C[C@]1([H])OCCN2C,14.39 & -12.28,-13.09
COC(=O)COc1ccc(-c2noc(C3CCCO3)n2)cc1 (centres undefined),13.86,95.14
Cc1cc2nc(SCC(=O)N3CCCCC3)n(C)c(=O)c2[nH]1,-10.06,-0.5515
[H][C@@]12CN(C3CCOCC3)C[C@]1([H])OCC(=O)N2Cc1ccncc1,-0.5953,-2.873 & -29.3
N#Cc1ccc(CN2CCN(C(=O)CCn3cncn3)CC2)cc1,-3.04,-0.2138 & -23.8
O=C(O)C(F)(F)F.c1ccc(OC2COC3(CCN(Cc4ccccn4)CC3)C2)cc1 (centres undefined),14.33,4.577
CN(CC(=O)N(C)C1CCCCC1)Cc1nc2ccccc2c(=O)[nH]1,-21.38,-31.87
CN(C)S(=O)(=O)c1ccc(=O)n(CC2CCCCO2)c1 (centres undefined),16.04,22.07
Cc1ccccc1NS(=O)(=O)c1cc2c(c(C(=O)O)c1)OCCO2,-11.44,1.738
Cn1nc(CN2CCCCC2)c2c1CN(C(=O)c1cccc(C#N)c1)C2.O=C(O)C(F)(F)F,-9.846,-23.25
COc1ccccc1CC(=O)N1CC[C@@]2(CCCO2)[C@@H](OC)C1,-14.43,-18.18
N#CCCN(CCC#N)C(=O)c1ccc(COc2ccccc2C#N)o1,-13.16,-8.861
CCc1nsc(N2CCN(CC(=O)NCc3cccnc3)CC2)n1,-5.736 & -5.545,-20.2
[H][C@]12CCCCN1CCC[C@H]2Cn1ccnc1-c1ccc(OC)cc1,-17.79,-2.851
O=C(c1ccnnc1)N1CCC2(CC1)CC(N1CCOCC1)C2,-14.17,-33.3
Cc1nn(CC(C)C)c(N(C)C)c1CNCc1cccc2c1OCO2,-54.86,-26.1
Nc1ccnc(C(=O)N2CCCC3(CCC(=O)N(C4CCCC4)C3)C2)c1 (centres undefined),10.95,7.445
CS(=O)(=O)NCC1CCCCN1C(=O)c1ccc(Br)s1 (centres undefined),-33.58,-14.4
CC(C)(C)n1ncc2c1NC(=O)CC2c1c(F)cccc1F (centres undefined),-5.517,2.269
CCOCC1CN(C(=O)COc2ccccc2C)Cc2ncn(C)c21.O=C(O)C(F)(F)F (centres undefined),33,14.3 & -3.51
Cc1nn(-c2ccccc2)c(C)c1-c1ccnc(N2CCCOCC2)n1,-1.445,4.66
Cc1nn(C)c(C)c1C1CCCN1Cc1cccc(C(N)=O)c1 (centres undefined),15.7,10.53
NC(=O)NC(CC(=O)NCCc1ccc(F)cc1)c1ccccc1 (centres undefined),-8.952,13.75
CC(=O)c1cc(CN2C[C@@H](CN3CCC(O)CC3)[C@@H](CO)C2)n(C)c1,-3.792,9.483
COCCNc1nc2c(c(NCC3CCOC3)n1)CCNCC2 (centres undefined),14.13 & 4.937,-6.483
CC(NC(=O)c1ccc(C#N)cn1)C1(N2CCOCC2)CCCC1 (centres undefined),10.08,20.37
[H][C@]12CCCCN1CCC[C@H]2CN(C)Cc1nc2ccsc2c(=O)[nH]1,3.5,-6.092
CCCS(=O)(=O)N1C[C@@H](c2ccccc2)[C@@]2(CCNC2=O)C1,-21.08,-60.97
N#Cc1cc(S(N)(=O)=O)ccc1N1CCN(c2ccccc2)CC1,-7.373,-12.65
CCOc1ncccc1C(=O)N1CCCC(c2nccn2CCOC)C1 (centres undefined),1.401,-27.4
Cc1ccc(-c2csc(-c3cccc(C(=O)O)c3)n2)cc1,-10.32,-1.739 & -7.746
Cc1nnc(N2CCC(CCN(C)C)CC2)c(C#N)c1C,17.58,5.538
Cc1cccc(CN2CCC3(CC2)CN(c2cccnc2)C(=O)CO3)n1.O=C(O)C(F)(F)F.O=C(O)C(F)(F)F,-8.859,-28.16
O=C1CC(c2ccc(F)c(F)c2)c2snc(C(=O)O)c2N1 (centres undefined),-12.95,-12.6
Cc1cnn(CCCNC2Cc3ccccc3C2)c1,-2.649,13.16
COc1ccc(C(=O)C2CCCN(c3cc(C#N)ccn3)C2)cc1OC (centres undefined),7.849,3.63
Cc1nc(CN2CCC(CNC(=O)Nc3ccccn3)CC2)oc1C,1.584,3.842
COCCCNC(=O)CN(C)C(=O)CN(C)c1ccc(C#N)cn1,-2.437,-7.08
c1ccc(-c2ncc(CN3CCC4(CCNCC4)C3)cn2)cc1,-20.38,-15.78
Cc1cc(CNC(=O)c2cc(C(C)C)n(C)n2)ccc1S(C)(=O)=O,7.258,12.75

5 of the entries, repeated:

{"structure": "CCCS(=O)(=O)N1C[C@@H](c2ccccc2)[C@@]2(CCNC2=O)C1", "A": -21.08, "B": -60.97}
{"structure": "N#CCCN(CCC#N)C(=O)c1ccc(COc2ccccc2C#N)o1", "A": -13.16, "B": -8.861}
{"structure": "N#Cc1cc(S(N)(=O)=O)ccc1N1CCN(c2ccccc2)CC1", "A": -7.373, "B": -12.65}
{"structure": "O=C(O)C(F)(F)F.O=S(=O)(C1CC1)N1CCCn2cnc(COc3cccnc3)c2C1", "A": -15.67, "B": -4.629}
{"structure": "COc1ccccc1CC(=O)N1CC[C@@]2(CCCO2)[C@@H](OC)C1", "A": -14.43, "B": -18.18}

Data taken from ChEMBL document CHEMBL3988442, “University of Dundee, Small-Polar-MMV Screening Library” (2021).